Here are results for 114 substances from the supplement of paper PMC5949888.

Most values lie at the floor of the assay. Slopes are relative: functional sequences can read slightly below zero.

For the series, the system named is Saccharomyces cerevisiae PS128 hsf1 delta, HSF1(1-493) fusion. The experiment in a line: growth estimate (transactivation domain function in HSF1 fusion, heat-shock survival) (a.u. (slope of normalised read count over time)); higher = stronger growth at 37°C, i.e. more transactivation activity. The note with it: library: random library.
For QLTEGGQFVSRGDESYYKGD, the growth estimate is less than -0.25.
Regarding IADFALSQQS, the growth estimate was less than -0.25.
In the case of PFSVL it was less than -0.25; in that of RVLRLVGELSTTVAA, less than -0.25.
With RKLVERWEFKRLQGSRHLTY the figure was less than -0.25; with RPSGDRERW, less than -0.25.
In the case of VKLWTRLDVLRCDGSHGQLR it was less than -0.25; in that of VFYRRVGHIVRLAEAMCHHH, less than -0.25; in that of IGRQRYSHLTLKYCQDLHVA, less than -0.25.
With AQTTNDRP, the growth estimate was less than -0.25.
In the case of WINHDLRS it was less than -0.25; in that of VILEATRVNVQARGVWRRWL, less than -0.25.
With NPTGLCLVLSVGDRLGVDFD the figure was less than -0.25; with VTSSHSTYGMAASLRNAESQ, less than -0.25; with IGRGTEHALVGMGLVPYLRK, less than -0.25.
In the case of TSGKP it was less than -0.25.
On to FHRWFGQESLSGYNCRPAFK, for which the growth estimate was less than -0.25.
With FPQAAPQSHRG the figure was less than -0.25.
With FETLASRKAHEKAGSF the figure was less than -0.25.
For the substance GAGEGHDSAGCLVCFKTSCG, the growth estimate is less than -0.25.
In the case of CGRDLHWPTNNSAERRHHTL it was -0.246.
In the case of LRGVRGRSQGSNRAGFAAFG it was less than -0.25; in that of WTHGQRRPALDGLYLWAPLR, less than -0.25.
With FPSPKL the figure was less than -0.25; with GCLRRGKGRVLITSRASS, less than -0.25; with RGLHLWRRCADTRSHRSPPR, less than -0.25.
Regarding RLVSYPELGPARVW, the growth estimate is less than -0.25.
EIGTRTSRTFR: the growth estimate was less than -0.25.
With QTSLS the figure was less than -0.25; with RSSGIRARAVAVLVARRELA, less than -0.25; with LQSSAGLEHTLLRGFRCEVW, less than -0.25.
With EPEKRGMFPSEGTAGAELWT the figure was less than -0.25; with PVMCVLWLLSLG, less than -0.25; with RWEA, less than -0.25.
In the case of SYHQTRKGSG it was less than -0.25; in that of AIAES, less than -0.25.
Take DQWQKADFELRPAH: the growth estimate was -0.0647.
In the case of LFRETRPLFRVIAGGLHVTD it was less than -0.25.
In the case of LASQCDS it was less than -0.25; in that of GKDGPQTGDPPVDT, less than -0.25; in that of LMLVWEVMIRTEAVYHGRPL, less than -0.25.
With ISRAGEPTS the figure was less than -0.25.
Take TSCVAVESRGPPVNIWGVLT: the growth estimate was -0.243.
Regarding HGYGYGPFLKP, the growth estimate is less than -0.25.
On to WDGSCIALGGGAISVGSGGA, for which the growth estimate was less than -0.25.
With ETPS the figure was less than -0.25.
With GRLRADGVWITRFVLGTKEV the figure was less than -0.25; with ARRHIRRNMTSKFREL, less than -0.25; with SRGQYARSHLVNPV, less than -0.25.
Take RNSSRQPET: the growth estimate is less than -0.25.
In the case of HTALHDQR it was less than -0.25.
Consider GAKGYRRSSTVADGTIRIWN, for which the growth estimate was less than -0.25.
TCET: the growth estimate was less than -0.25.
With TVPRVIEFCNPD, the growth estimate is -0.183.
For the substance SVKSY, the growth estimate was less than -0.25.
With TSSRSSLQGVVPVSRMVSTD the figure was less than -0.25.
As for PAGHNPKARKPLVIIWRCLG, the growth estimate was less than -0.25.
In the case of TVVRADALVVA it was less than -0.25; in that of SYGQGTNEVTSHRDRWAPPT, less than -0.25; in that of SIKRSAVVLVTAPVYSRTAP, less than -0.25.
In the case of SGDCLLTPRFTVGSTRRRMS it was -0.236; in that of CFYVIDTSSDSMCQVDGNES, less than -0.25.
In the case of RVPVLEH it was less than -0.25.
Regarding SKICVENIWGISRLIRRHRR, the growth estimate was less than -0.25.
In the case of GKK it was less than -0.25; in that of LRKSILVIGVAHFYPVWGIA, less than -0.25.
With GHLNRRGSRFLRAKHFGICF the figure was less than -0.25; with CGSRHGRVPTLVRVPGQAQL, less than -0.25.
As for VRPDDNCTHASGNVRS, the growth estimate was less than -0.25.
With ISLIDSKCMPAATKVLSLLD the figure was less than -0.25; with HRGCQL, less than -0.25.
For LKVPCRERSRSLTVSVCRLN, the growth estimate was less than -0.25.
With LPSARLQPRNVLYR the figure was less than -0.25.
In the case of LGNRFAIWVDRVKTMRQVHL it was less than -0.25; in that of TIGHVPNLPAQEHLG, less than -0.25; in that of QEACGGYAWYW, less than -0.25.
In the case of SVPSIAVSFRVPAGVG it was less than -0.25; in that of PVRFGDH, less than -0.25; in that of IRFVGIIMRVR, less than -0.25.
With YSLSLPDDFSEPVHDRLLPE, the growth estimate was less than -0.25.
With RCERRSGLFAPWGLWRRSHP the figure was less than -0.25.
In the case of SRSGLCEDEARSCICSPVLA it was less than -0.25; in that of AISETDGHNVRLQFSPQLRT, -0.245.
With DLLG the figure was less than -0.25; with PTNYRTRPCLLVKKRKKKGI, less than -0.25.
In the case of KCILRPQ, the growth estimate was -0.198.
In the case of LFSQRQTIPVPPHICRSGDV it was less than -0.25; in that of AVSYCVSNQARSPRWVQVRG, less than -0.25.
In the case of LGLIKSAFR it was less than -0.25.
In the case of SSLVFRCVSLRLEAA it was less than -0.25.
For LFRRLSRVSSKYEIRTQVKA, the growth estimate was less than -0.25.
With GNIWGTFFD the figure was -0.139; with GLGQKRIEDHFAAFSSCPFM, less than -0.25; with FRP, less than -0.25.
For the substance PGGGRVGARRIARQVTGFVV, the growth estimate is less than -0.25.
In the case of LPKVVGRNYTRILYSLKTPA it was less than -0.25.
In the case of RDVELRGGILPRWHSYEAIW it was less than -0.25; in that of HRRSQ, less than -0.25.
Consider DREIEGGIQL, for which the growth estimate is -0.246.
With AVDRIHRVAVSTYYVHTTLA the figure was less than -0.25; with VIPAIVTTQIHC, less than -0.25; with HVSDIDIPPGTSRGHAPETC, less than -0.25.
With SHGVSESVGLVTIKKGPCAS the figure was less than -0.25.
As to WVQTGE, the growth estimate was less than -0.253.
With CAPATLFHWEPSYRSYTR, the growth estimate is less than -0.25.
In the case of VRKGADFSYSRQAHVAGRVP it was less than -0.25; in that of RLWVRWFHRGGGSLKHNVVT, -0.246; in that of SRLVIAGEIAAFKVPSRVSS, less than -0.25.
In the case of ANGISFVLARQVFNEVQQWW it was -0.246; in that of KSYRFPARVSSIQILVGTDA, less than -0.25.
STRGAIFVGRGPINEGPAIS: the growth estimate is less than -0.25.
With VDPSRLFPIQDRKRSCRDLT the figure was less than -0.25.
With VFLDS the figure was less than -0.25; with GPRDLSGA, less than -0.25.
